Laboratory results: patent US20160326530
For at least one entry, the source does not settle the construct or the ends of the probe.

Amino acid sequences for entries named in this document (tags omitted). Residues count along the entry.
UniProt P14780, 112-445: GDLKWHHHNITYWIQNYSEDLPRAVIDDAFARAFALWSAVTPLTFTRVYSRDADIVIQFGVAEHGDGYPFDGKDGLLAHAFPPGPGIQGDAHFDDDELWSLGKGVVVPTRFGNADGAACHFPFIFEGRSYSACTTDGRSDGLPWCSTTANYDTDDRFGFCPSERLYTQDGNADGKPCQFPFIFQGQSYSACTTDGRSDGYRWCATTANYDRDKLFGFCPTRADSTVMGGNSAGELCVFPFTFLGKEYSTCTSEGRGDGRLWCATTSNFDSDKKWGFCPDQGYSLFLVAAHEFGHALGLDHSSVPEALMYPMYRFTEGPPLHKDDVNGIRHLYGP

Molecular target: MMP-9 catalytic domain (Homo sapiens) (UniProt P14780)
Assay: SELEX
Details: purified recombinant protein; protein details: C-terminal 6-His, Biomol International; single-stranded DNA

Selection result, selected:
GCCTGTTGTGAGCCTCCTGTCGAACCGCGAGGGTTTGGCTTACGGCGCCTGGCGTTGAGCGTTTATTCTTGTCTCCC [8F27]
GCCTGTTGTGAGCCTCCTGTCGAACCGGGGTTTGGTGGGTCTGGGGTAGTTGGCTTGAGCGTTTATTCTTGTCTCCC [11F57]
GCCTGTTGTGAGCCTCCTGTCGAACCGTTGGGATTGGCTTCGGTGCCTGGCGTGTTGAGCGTTTATTCTTGTCTCCC [8F50]
GCCTGTTGTGAGCCTCCTGTCGAACCTGCGCCGTGATTAGGGGTGGGGGGGTGGTTGAGCGTTTATTCTTGTCTCCC [8F67]
GCCTGTTGTGAGCCTCCTGTCGAACTGGCGCGGGGTTGGTGTCGGGTTTGGTTTTTGAGCGTTTATTCTTGTCTCCC [8F19]
GCCTGTTGTGAGCCTCCTGTCGAAGAAGTGGTTGGGGTATGGTTGGTACAGGTTTTGAGCGTTTATTCTTGTCTCCC [8F77]
GCCTGTTGTGAGCCTCCTGTCGAAGCGGGGTTTGGTGGGTCTGGGGTTGTTGGTTTGAGCGTTTATTCTTGTCTCCC [8F44]
GCCTGTTGTGAGCCTCCTGTCGAATAGGGTTTGGTGGGTCTGGGGTTGCTGGCCTTGAGCGTTTATTCTTGTCTCCC [11F89]
GCCTGTTGTGAGCCTCCTGTCGAATCGTATGGCACGGGGTTGGTGTTGGGTTGGTTGAGCGTTTATTCTTGTCTCCC [8F14]
GCCTGTTGTGAGCCTCCTGTCGAATGAGGGGGGTGGATGGGAGGGTTCCGCACGTTGAGCGTTTATTCTTGTCTCCC [8F65]
GCCTGTTGTGAGCCTCCTGTCGAATGGACGGTGGGTTGGGGCGGGGGGTGTCCATTGAGCGTTTATTCTTGTCTCCC [11F2]
GCCTGTTGTGAGCCTCCTGTCGAATGGGGTTTGGTGGGTCTGGGGTTGCTGGCCTTGAGCGTTTATTCTTGTCTCCC [11F46]
GCCTGTTGTGAGCCTCCTGTCGAATGGGGTTTGGTGGGTTTGGGGTTGCTGGCCTTGAGCGTTTATTCTTGTCTCCC [11F76]
GCCTGTTGTGAGCCTCCTGTCGAATGGTGGTTGGTGGGGTGGAGGTTAGGTACCTTGAGCGTTTATTCTTGTCTCCC [8F11]
GCCTGTTGTGAGCCTCCTGTCGAATTGGGGTTTGGTGGGTCTGGGGTTGCGGGTTTGAGCGTTTATTCTTGTCTCCC [8F68]
GCCTGTTGTGAGCCTCCTGTCGAATTGGTGGGATGGGGGGGGGGTTGTTCGGCTTTGAGCGTTTATTCTTGTCTCCC [8F5]
